The results in this text go back to PMC5363390.

These are yes or no findings as the source states them, for the method shown. Some binding calls cover weakened binding; strength is not graded here. Tags and fused reporters may be left off the sequences shown.

In this assay the target is T1, PACT expressed as a GAL4 DNA-binding domain fusion protein (pGBKT7) (UniProt O75569).
T1 sequence: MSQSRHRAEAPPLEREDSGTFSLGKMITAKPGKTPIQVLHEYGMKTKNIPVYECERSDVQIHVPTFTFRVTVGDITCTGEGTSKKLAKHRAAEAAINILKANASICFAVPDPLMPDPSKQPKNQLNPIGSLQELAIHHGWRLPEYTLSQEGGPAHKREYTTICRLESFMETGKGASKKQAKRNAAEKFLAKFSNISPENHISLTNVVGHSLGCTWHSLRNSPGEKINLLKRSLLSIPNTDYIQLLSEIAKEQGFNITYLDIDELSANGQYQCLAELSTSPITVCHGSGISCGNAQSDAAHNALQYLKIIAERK
Description: two-hybrid; ADAR1 in pGADT7, PACT in pGBKT7, AH109 yeast; serial dilutions spotted on triple dropout SD medium lacking histidine, tryptophan and leucine, 30°C, 3 days.

B1: ADAR1 expressed as a GAL4 DNA-activation domain fusion protein (pGADT7) (protein, UniProt P55265 1-1226)
chain: MNPRQGYSLSGYYTHPFQGYEHRQLRYQQPGPGSSPSSFLLKQIEFLKGQLPEAPVIGKQTPSLPPSLPGLRPRFPVLLASSTRGRQVDIRGVPRGVHLRSQGLQRGFQHPSPRGRSLPQRGVDCLSSHFQELSIYQDQEQRILKFLEELGEGKATTAHDLSGKLGTPKKEINRVLYSLAKKGKLQKEAGTPPLWKIAVSTQAWNQHSGVVRPDGHSQGAPNSDPSLEPEDRNSTSVSEDLLEPFIAVSAQAWNQHSGVVRPDSHSQGSPNSDPGLEPEDSNSTSALEDPLEFLDMAEIKEKICDYLFNVSDSSALNLAKNIGLTKARDINAVLIDMERQGDVYRQGTTPPIWHLTDKKRERMQIKRNTNSVPETAPAAIPETKRNAEFLTCNIPTSNASNNMVTTEKVENGQEPVIKLENRQEARPEPARLKPPVHYNGPSKAGYVDFENGQWATDDIPDDLNSIRAAPGEFRAIMEMPSFYSHGLPRCSPYKKLTECQLKNPISGLLEYAQFASQTCEFNMIEQSGPPHEPRFKFQVVINGREFPPAEAGSKKVAKQDAAMKAMTILLEEAKAKDSGKSEESSHYSTEKESEKTAESQTPTPSATSFFSGKSPVTTLLECMHKLGNSCEFRLLSKEGPAHEPKFQYCVAVGAQTFPSVSAPSKKVAKQMAAEEAMKALHGEATNSMASDNQPEGMISESLDNLESMMPNKVRKIGELVRYLNTNPVGGLLEYARSHGFAAEFKLVDQSGPPHEPKFVYQAKVGGRWFPAVCAHSKKQGKQEAADAALRVLIGENEKAERMGFTEVTPVTGASLRRTMLLLSRSPEAQPKTLPLTGSTFHDQIAMLSHRCFNTLTNSFQPSLLGRKILAAIIMKKDSEDMGVVVSLGTGNRCVKGDSLSLKGETVNDCHAEIISRRGFIRFLYSELMKYNSQTAKDSIFEPAKGGEKLQIKKTVSFHLYISTAPCGDGALFDKSCSDRAMESTESRHYPVFENPKQGKLRTKVENGEGTIPVESSDIVPTWDGIRLGERLRTMSCSDKILRWNVLGLQGALLTHFLQPIYLKSVTLGYLFSQGHLTRAICCRVTRDGSAFEDGLRHPFIVNHPKVGRVSIYDSKRQSGKTKETSVNWCLADGYDLEILDGTRGTVDGPRNELSRVSKKNIFLLFKKLCSFRYRRDLLRLSYGEAKKAARDYETAKNYFKKGLKDMGYGNWISKPQEEKNFYLCPV
Turning to B1, the binding result was “binds”.
